Data on 1 substance can be found in article PMC4007406.

These are yes or no findings as the source states them, for the method shown. Binding seen in cells or lysates may run through a third protein. For some assays here: A result given as binding can be weak or reduced; the word gives no strength.

Experiment [1] has as its target T1, Sec13 (zebrafish (endogenous in inner ear hair cells)) (UniProt Q7T2E1).
T1 sequence: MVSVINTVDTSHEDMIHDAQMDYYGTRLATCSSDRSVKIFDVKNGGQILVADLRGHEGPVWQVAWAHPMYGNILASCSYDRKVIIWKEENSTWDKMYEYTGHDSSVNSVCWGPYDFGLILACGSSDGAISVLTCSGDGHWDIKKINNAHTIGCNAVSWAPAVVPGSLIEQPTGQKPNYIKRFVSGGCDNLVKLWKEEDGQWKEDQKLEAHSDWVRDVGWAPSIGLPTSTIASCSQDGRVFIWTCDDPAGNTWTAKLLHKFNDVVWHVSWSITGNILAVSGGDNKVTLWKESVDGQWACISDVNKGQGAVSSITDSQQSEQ
Put plainly: proximity ligation; Duo-Link proximity ligation assay on fixed whole-mount larvae at 5 dpf, homozygous cdh23^tj264a mutants, anterior macula hair cells.

Experiment [2] has as its target T1, Sec13 (zebrafish (endogenous in inner ear hair cells)). Put plainly: proximity ligation; Duo-Link proximity ligation assay on fixed whole-mount zebrafish larvae at 5 dpf, wild-type siblings, anterior macula hair cells; pairs of primary antibodies at 1:500 (tubulin antibodies 1:100).

For the substance Ift88, the binding entry in experiment [1] is listed as “no binding (only in cdh23^tj264a mutants)”; in experiment [2], “binds”.
